Measured values from patent US20250205344A1, “2,4-DIOXOTETRAHYDROPYRIMIDINYL DERATIVES AS DEGRONS IN PROTACS” (GLAXOSMITHKLINE INTELLECTUAL PROPERTY DEVELOPMENT LIMITED, priority 2022, published 2025).
Some of these results come from one statement about several compounds together.

Sequences of proteins named here, by UniProt entry; tags and fusion partners are left off.
UniProt P10275, whole entry T878A: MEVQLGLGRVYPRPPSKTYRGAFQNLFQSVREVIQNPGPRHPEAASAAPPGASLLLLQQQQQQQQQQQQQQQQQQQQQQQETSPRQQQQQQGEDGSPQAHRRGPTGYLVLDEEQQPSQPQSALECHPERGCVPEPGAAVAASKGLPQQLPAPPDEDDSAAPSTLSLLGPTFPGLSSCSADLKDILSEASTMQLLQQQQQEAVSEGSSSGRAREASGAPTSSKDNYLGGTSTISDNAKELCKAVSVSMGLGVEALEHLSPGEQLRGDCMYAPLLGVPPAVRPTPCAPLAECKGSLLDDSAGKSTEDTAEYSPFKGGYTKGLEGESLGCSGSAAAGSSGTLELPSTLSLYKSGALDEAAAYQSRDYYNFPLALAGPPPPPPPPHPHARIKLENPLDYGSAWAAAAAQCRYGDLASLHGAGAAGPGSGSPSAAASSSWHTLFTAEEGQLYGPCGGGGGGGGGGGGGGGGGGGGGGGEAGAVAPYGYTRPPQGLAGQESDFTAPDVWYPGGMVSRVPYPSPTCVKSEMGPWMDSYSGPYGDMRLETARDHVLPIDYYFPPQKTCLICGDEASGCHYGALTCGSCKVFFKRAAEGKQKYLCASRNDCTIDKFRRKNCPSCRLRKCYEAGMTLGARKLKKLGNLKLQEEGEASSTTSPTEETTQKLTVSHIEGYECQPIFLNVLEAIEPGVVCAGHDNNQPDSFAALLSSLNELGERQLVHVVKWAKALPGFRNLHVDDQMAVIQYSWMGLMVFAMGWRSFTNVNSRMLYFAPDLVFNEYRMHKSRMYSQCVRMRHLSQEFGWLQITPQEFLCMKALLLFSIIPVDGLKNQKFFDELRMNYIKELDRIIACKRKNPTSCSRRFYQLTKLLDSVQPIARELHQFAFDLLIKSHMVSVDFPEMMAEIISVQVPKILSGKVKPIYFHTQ

Target: T1, Androgen Receptor (Homo sapiens, UniProt P10275, T878A)
T1 construct: the AR gene was modified, using CRISPR/Cas9 editing, so the expressed AR protein included an 11 amino acid HiBiT tag; endogenous in cells; host or cells: clonal LnCaP-derived line, AR gene edited by CRISPR/Cas9
Assay: Androgen Receptor Degradation Assay (Nano-Glo HiBiT)
Type: cell-based
Conditions: HiBiT-tagged AR in human LnCaP cells, 18 h
Protocol: Degradation of Androgen Receptor protein in human LnCaP cells treated with PROTACs was quantified using the Nano-Glo® HiBiT Lytic Detection System (Promega) in 384 well assay plate format. A clonal LnCaP derived cell line was first established in which the AR gene was modified, using CRISPR/Cas9 editing, so the expressed AR protein included an 11 amino acid HiBiT tag at its amino-terminus. 10 mM DMSO stock solutions of PROTACs were prepared and diluted across an 11 concentration, 3 fold increment range, and 25 nL dispensed into a white opaque bottomed 384 well assay plate (Thermofisher) using an acoustic ECHO dispenser (Labcyte). […] For the assay, cells were detached from flask and resuspended with assay medium (FluoroBrite™ DMEM supplemented with 10% heat inactivated FBS, penicillin 50 U/mL and streptomycin 50 ug/mL (Thermofisher)). The cell suspension was centrifuged at 400 g for 5 min and the pellet resuspended in assay medium. 25 μL of cell suspension containing 10,000 cells was dispensed into each well of the assay plate containing the test compounds, which was then incubated for 18 h at 37° C./5% CO2. Control wells were included on each assay plate, with assay medium without cells being the no AR remaining 100% effect control, and cells treated with DMSO vehicle only, without PROTAC, the 0% effect control. 25 μL of Nano-Glo® HiBiT lysis buffer supplemented with LgBiT protein and Nano-Glo® substrate (Promega) was added to each well and the plate shaken at 500 rpm for 10 min at room temperature. The intensity of luminescence was measured using a PHERAstar microplate reader (BMG Labtech) and the % AR protein remaining in each well calculated by normalising the raw luminescence value to the above control wells. Parameters corresponding to the potency and efficacy estimates of the PROTACs were obtained from these normalised luminescence values using software (IDBS ActivityBase). These included the DC50 and the Dmax estimates. Two versions of the DC50, called relative DC50 and absolute DC50, were typically generated. These are the inflection point of a fitted 4 parameter sigmoidal response curve and the interpolated concentration of PROTAC corresponding to 50% of the protein being degraded, respectively. The Dmax parameter was the maximum experimentally observed degradation and the asymptote max parameter the fitted response curve asymptote maximum.

Row | Structure (SMILES) | mean relative pDC50 | other results
1 | C[C@@H]1CN(c2ccc(C#N)c(Cl)c2)[C@@H](C)CN1C(=O)c1ccc(OCCCCN2CCC(n3ccc4c(N5CCC(=O)NC5=O)cncc43)CC2)nc1 [EAR160, 2-Chloro-4-((2S,5R)-4-(6-(4-(4-(4-(2,4-dioxotetrahydropyrimidin-1(2H)-yl)-1H-pyrrolo[2,3-c]pyridin-1-yl)piperidin-1-yl)butoxy)nicotinoyl)-2,5-dimethylpiperazin-1-yl)benzonitrile] | ≥ 6.0 | 
2 | Cl.N#Cc1ccc(O[C@H]2CC[C@H](NC(=O)c3ccc(N4CCC(CN5CCC(n6ccc7c(N8CCC(=O)NC8=O)ncnc76)CC5)CC4)nn3)CC2)cc1Cl [EAR120, N-((1r,4r)-4-(3-Chloro-4-cyanophenoxy)cyclohexyl)-6-(4-((4-(4-(2,4-dioxotetrahydropyrimidin-1(2H)-yl)-7H-pyrrolo[2,3-d]pyrimidin-7-yl)piperidin-1-yl)methyl)piperidin-1-yl)pyridazine-3-carboxamide hydrochloride] |  | mean asymptote max: ≥ 50%
3 | CC(C)n1ccc2c(N3CCC(=O)NC3=O)cc(C(=O)N3CCN(CCCCOc4ccc(N5C(=S)N(c6ccc(C#N)c(C(F)(F)F)c6)C(=O)C5(C)C)cc4)CC3)cc21 [EAR92, 4-(3-(4-(4-(4-(4-(2,4-Dioxotetrahydropyrimidin-1(2H)-yl)-1-isopropyl-1H-indole-6-carbonyl)piperazin-1-yl)butoxy)phenyl)-4,4-dimethyl-5-oxo-2-thioxoimidazolidin-1-yl)-2-(trifluoromethyl)benzonitrile] | ≥ 6.0 | 
4 | C[C@@H]1CN(c2ccc(C#N)c(Cl)c2)[C@@H](C)CN1C(=O)c1ccc(N2CCC(CN3CCC(n4ncc5c(N6CCC(=O)NC6=O)cncc54)CC3)CC2)nn1 [EAR146, 2-Chloro-4-((2S,5R)-4-(6-(4-((4-(4-(2,4-dioxotetrahydropyrimidin-1(2H)-yl)-1H-pyrazolo[3,4-c]pyridin-1-yl)piperidin-1-yl)methyl)piperidin-1-yl)pyridazine-3-carbonyl)-2,5-dimethylpiperazin-1-yl)benzonitrile] | ≥ 6.0 | 
5 | CN(c1ccc(C#N)c(Cl)c1)[C@H]1CC[C@H](NC(=O)c2ccc(N3CCC(CN4CCC(n5ccc6c(N7CCC(=O)NC7=O)cc(F)cc65)CC4)CC3)nn2)CC1.Cl [EAR201, N-((1r,4r)-4-((3-Chloro-4-cyanophenyl)(methyl)amino)cyclohexyl)-6-(4-((4-(4-(2,4-dioxotetrahydropyrimidin-1(2H)-yl)-6-fluoro-1H-indol-1-yl)piperidin-1-yl)methyl)piperidin-1-yl)pyridazine-3-carboxamide hydrochloride] |  | mean relative pDC50 (hydrochloride): ≥ 8.0
